PubChem BioAssay AID1259308 – NCATS, 2017
The deposit covers about 59,000 reagents; below is an unselected part. Over the whole deposit, about 1,510 (2.6%) were called active. 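Calls use total luciferase alone and ignore viability, so some active siRNAs may act by altering cell number.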 Unmarked entries are inactive. The numbers tell different reagents against one gene apart.

- Test: 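Genes whose loss raises luciferase production in HEK293 cells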 (primary screen)
- Cells: human HEK293 embryonic kidney cells stably expressing firefly luciferase (HEK-CMV-Luc2-Hygro)
- Reagents: single siRNA against human genes, 0.8 pmol siRNA per well
- Time to read-out: 72 h
- Measured: 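Reporter luminescence and viable-cell signal on separate replicate plates, given as percent of non-targeting control and median/MAD z-scores, plus per-cell luciferase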
- Reading the numbers: total luciferase, z-score and total luciferase, % of control: higher = more reporter protein produced; luciferase per cell, z-score: higher = more reporter output per viable cell; viable cells, % of control: higher = more viable cells
- Rule for the call: 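An siRNA counts as active if its total luciferase robust z-score exceeds 3; genes with two or more such siRNAs out of three were retested with fresh siRNAs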
- Calls: active = raised luciferase; inactive = no rise

Gene,reagent no.,"total luciferase, z-score","total luciferase, % of control","luciferase per cell, z-score","viable cells, % of control"
RPIA (ribose 5-phosphate isomerase A),1,-0.401,73.9,-0.91,105
RPIA (ribose 5-phosphate isomerase A),2,1.54,112,2.44,66.1
RPIA (ribose 5-phosphate isomerase A),3,0.493,91.7,-0.246,109
TCEA3 (transcription elongation factor A3),1,-2.33,35.5,-2.52,77.2
TCEA3 (transcription elongation factor A3),2,-0.622,69.5,-0.356,85.3
TCEA3 (transcription elongation factor A3),3,0.431,90.5,0.00424,101
"ERVFRD-1 (endogenous retrovirus group FRD member 1, envelope)",1,0.476,91.4,0.118,99
"ERVFRD-1 (endogenous retrovirus group FRD member 1, envelope)",2,0.878,99.4,0.352,101
"ERVFRD-1 (endogenous retrovirus group FRD member 1, envelope)",3,0.396,89.8,0.64,84.8
CEP89 (centrosomal protein 89),1,-1.47,52.6,-1.16,79.7
CEP89 (centrosomal protein 89),2,0.282,87.5,0.497,85.8
CEP89 (centrosomal protein 89),3,-0.765,66.7,-1.09,99.4
EPB41 (erythrocyte membrane protein band 4.1),1,2.8,138,2.94,70.8
EPB41 (erythrocyte membrane protein band 4.1),2,-0.0613,80.7,0.138,86.9
EPB41 (erythrocyte membrane protein band 4.1),3,-1.67,48.7,-2.21,97.3
CCDC102B (coiled-coil domain containing 102B),1,1.29,108,1.22,87.2
CCDC102B (coiled-coil domain containing 102B),2,0.615,94.1,-0.0261,106
CCDC102B (coiled-coil domain containing 102B),3,0.702,95.9,0.882,84.9
ADGRF5 (adhesion G protein-coupled receptor F5),1,0.0347,82.6,-0.155,96.1
ADGRF5 (adhesion G protein-coupled receptor F5),2,-0.0628,80.6,-0.212,95.3
ADGRF5 (adhesion G protein-coupled receptor F5),3,0.532,92.5,-0.366,114
DRD4 (dopamine receptor D4),1,-0.276,76.4,0.301,78.9
DRD4 (dopamine receptor D4),2,-0.977,62.5,-1.08,92.8
DRD4 (dopamine receptor D4),3,4.38 (active),169,3.32,78.9
ZKSCAN3 (zinc finger with KRAB and SCAN domains 3),1,0.0795,83.5,0.168,89.2
ZKSCAN3 (zinc finger with KRAB and SCAN domains 3),2,-0.523,71.5,-1,104
ZKSCAN3 (zinc finger with KRAB and SCAN domains 3),3,0.561,93,0.184,99.1
C2CD3 (C2 domain containing 3 centriole elongation regulator),1,-0.265,76.6,0.247,80.2
C2CD3 (C2 domain containing 3 centriole elongation regulator),2,0.2,85.9,-0.36,105
C2CD3 (C2 domain containing 3 centriole elongation regulator),3,-1.77,46.7,-2.28,95.1
HCRT (hypocretin neuropeptide precursor),1,0.321,88.3,0.579,84.7
HCRT (hypocretin neuropeptide precursor),2,1.95,121,1.73,85.6
HCRT (hypocretin neuropeptide precursor),3,0.619,94.2,0.551,91
CALML6 (calmodulin like 6),1,-0.226,77.4,0.527,75.3
CALML6 (calmodulin like 6),2,0.385,89.5,0.548,86.6
CALML6 (calmodulin like 6),3,-1.68,48.5,-0.973,70.1
UPF2 (UPF2 regulator of nonsense mediated mRNA decay),1,0.277,87.4,0.296,90.3
UPF2 (UPF2 regulator of nonsense mediated mRNA decay),2,0.699,95.8,0.748,87.9
UPF2 (UPF2 regulator of nonsense mediated mRNA decay),3,0.812,98,0.138,106
TTLL13 (tubulin tyrosine ligase like 13),1,-0.798,66,-0.677,88.2
TTLL13 (tubulin tyrosine ligase like 13),2,0.29,87.6,0.0113,97.6
TTLL13 (tubulin tyrosine ligase like 13),3,-2.8,26.1,-2.05,50.1
OR4S2 (olfactory receptor family 4 subfamily S member 2),1,-0.429,73.4,0.665,68.8
OR4S2 (olfactory receptor family 4 subfamily S member 2),2,0.0293,82.5,0.142,88.8
OR4S2 (olfactory receptor family 4 subfamily S member 2),3,1.85,119,1.74,83.9
PARP2 (poly(ADP-ribose) polymerase 2),1,-0.38,74.3,0.187,79.1
PARP2 (poly(ADP-ribose) polymerase 2),2,-0.4,73.9,-0.824,103
PARP2 (poly(ADP-ribose) polymerase 2),3,-0.161,78.7,-0.23,93.4

The list goes on, starting with the last 8 of the part before.
Gene,reagent no.,"total luciferase, z-score","total luciferase, % of control","luciferase per cell, z-score","viable cells, % of control"
TTLL13 (tubulin tyrosine ligase like 13),2,0.29,87.6,0.0113,97.6
TTLL13 (tubulin tyrosine ligase like 13),3,-2.8,26.1,-2.05,50.1
OR4S2 (olfactory receptor family 4 subfamily S member 2),1,-0.429,73.4,0.665,68.8
OR4S2 (olfactory receptor family 4 subfamily S member 2),2,0.0293,82.5,0.142,88.8
OR4S2 (olfactory receptor family 4 subfamily S member 2),3,1.85,119,1.74,83.9
PARP2 (poly(ADP-ribose) polymerase 2),1,-0.38,74.3,0.187,79.1
PARP2 (poly(ADP-ribose) polymerase 2),2,-0.4,73.9,-0.824,103
PARP2 (poly(ADP-ribose) polymerase 2),3,-0.161,78.7,-0.23,93.4
NUDCD3 (NudC domain containing 3),1,1.03,102,1.04,87
NUDCD3 (NudC domain containing 3),2,-0.355,74.8,0.0164,83.3
NUDCD3 (NudC domain containing 3),3,-1.97,42.7,-1.9,78.8
UBXN6 (UBX domain protein 6),1,-1.76,46.9,-1.97,88
UBXN6 (UBX domain protein 6),2,-0.69,68.2,-0.923,97.1
UBXN6 (UBX domain protein 6),3,1.73,116,0.438,116
ADCY4 (adenylate cyclase 4),1,-0.77,66.6,-0.211,78.6
ADCY4 (adenylate cyclase 4),2,3.25 (active),146,2.67,81
ADCY4 (adenylate cyclase 4),3,0.247,86.8,0.144,93.4
"CPXM1 (carboxypeptidase X, M14 family member 1)",1,0.747,96.7,0.572,93
"CPXM1 (carboxypeptidase X, M14 family member 1)",2,-0.704,67.9,-1.34,108
"CPXM1 (carboxypeptidase X, M14 family member 1)",3,2.76,137,1.81,94.9
PCDH18 (protocadherin 18),1,0.39,89.6,-0.0277,101
PCDH18 (protocadherin 18),2,0.384,89.5,0.789,81.3
PCDH18 (protocadherin 18),3,0.782,97.4,1.18,79.7
TMEM184A (transmembrane protein 184A),1,-0.888,64.2,-0.476,81.4
TMEM184A (transmembrane protein 184A),2,1.09,103,1.08,86.9
TMEM184A (transmembrane protein 184A),3,-0.474,72.5,-0.0568,82.2
TNFRSF6B (TNF receptor superfamily member 6b),1,0.505,91.9,0.215,97.1
TNFRSF6B (TNF receptor superfamily member 6b),2,1.04,103,0.55,99.2
TNFRSF6B (TNF receptor superfamily member 6b),3,-0.939,63.2,-0.931,90.3
RBM18 (RNA binding motif protein 18),1,-0.409,73.8,-0.637,97.5
RBM18 (RNA binding motif protein 18),2,-1.04,61.1,-1.49,101
RBM18 (RNA binding motif protein 18),3,-0.649,69,-0.523,88.5
SNX21 (sorting nexin family member 21),1,2.61,134,2.57,76
SNX21 (sorting nexin family member 21),2,0.959,101,0.536,98
SNX21 (sorting nexin family member 21),3,-0.906,63.9,-0.691,85.6
